Experimental data: patent US20030054488A1 (published 2003)
Results are given in words; binding and its absence hold for the method and conditions named. Some binding calls cover weakened binding; strength is not graded here. Sequences can lack the tags named with a protein.

Protein sequences, listed by entry. Tags and fused reporters are not part of them. Lines headed by an entry give the natural chain unless they say otherwise; changes in a name come on top. Chains listed by the source or under a name are the forms on record and can include a tag or linker.
Human recombinant GP antigen (rGP) produced in 293 cells (Q01955, form named): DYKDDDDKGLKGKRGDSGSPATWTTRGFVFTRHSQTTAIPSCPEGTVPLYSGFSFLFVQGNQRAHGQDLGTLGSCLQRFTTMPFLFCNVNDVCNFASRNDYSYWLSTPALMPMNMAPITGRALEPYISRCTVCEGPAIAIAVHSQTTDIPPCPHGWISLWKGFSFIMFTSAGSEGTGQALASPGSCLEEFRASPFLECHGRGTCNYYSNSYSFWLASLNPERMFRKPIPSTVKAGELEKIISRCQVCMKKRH

Biological target: Human recombinant GP antigen (rGP) produced in 293 cells (human) (UniProt Q01955)
Experiment: filter overlay

B1: HeLa1 beta-galactosidase-derived fusion protein containing the N-terminal 150 residues of GPBP (protein, not shown: large carriers)
chain: MSDNQSWNSSGSEEDPETESGPPVERCGVLSKWTNYIHGWQDRWVVLKNNALSYYKSEDETEYGCRGSICLSKAVITPHDFDECRFDISVNDSVWYLRAQDPDHRQQWIDAIEQHKTESGYGSESSLRRHGSMVSLVSGASGYSATSTSS
binding: binds
